Measurements taken from the supplement of paper PMC10849652.
The other results are listed elsewhere or left out.

Chains of the proteins cited; added tags and fusions are not shown. Lines headed by an entry give the natural chain unless they say otherwise; changes in a name come on top.
UniProt Q96BD8: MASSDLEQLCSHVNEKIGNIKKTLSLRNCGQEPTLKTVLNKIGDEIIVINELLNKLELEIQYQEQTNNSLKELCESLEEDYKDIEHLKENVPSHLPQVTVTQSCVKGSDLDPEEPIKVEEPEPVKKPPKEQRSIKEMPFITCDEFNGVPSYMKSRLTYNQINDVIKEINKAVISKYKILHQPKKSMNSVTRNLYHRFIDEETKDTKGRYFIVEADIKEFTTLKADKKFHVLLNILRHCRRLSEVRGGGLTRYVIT
UniProt O95470: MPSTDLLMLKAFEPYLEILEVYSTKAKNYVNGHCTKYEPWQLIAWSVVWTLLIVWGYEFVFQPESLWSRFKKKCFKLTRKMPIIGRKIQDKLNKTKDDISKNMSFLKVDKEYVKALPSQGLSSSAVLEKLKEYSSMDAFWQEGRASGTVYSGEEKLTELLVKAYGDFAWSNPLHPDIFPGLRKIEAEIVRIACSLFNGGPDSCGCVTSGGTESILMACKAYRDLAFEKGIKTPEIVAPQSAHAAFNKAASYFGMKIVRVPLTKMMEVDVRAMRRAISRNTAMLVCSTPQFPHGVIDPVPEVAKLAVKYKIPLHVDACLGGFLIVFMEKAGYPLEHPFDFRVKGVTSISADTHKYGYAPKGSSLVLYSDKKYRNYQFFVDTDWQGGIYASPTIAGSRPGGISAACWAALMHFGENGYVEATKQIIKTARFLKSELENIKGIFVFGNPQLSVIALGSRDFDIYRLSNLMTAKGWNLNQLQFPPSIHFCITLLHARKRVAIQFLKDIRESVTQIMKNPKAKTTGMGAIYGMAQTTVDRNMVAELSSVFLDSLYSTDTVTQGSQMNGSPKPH
UniProt P50454: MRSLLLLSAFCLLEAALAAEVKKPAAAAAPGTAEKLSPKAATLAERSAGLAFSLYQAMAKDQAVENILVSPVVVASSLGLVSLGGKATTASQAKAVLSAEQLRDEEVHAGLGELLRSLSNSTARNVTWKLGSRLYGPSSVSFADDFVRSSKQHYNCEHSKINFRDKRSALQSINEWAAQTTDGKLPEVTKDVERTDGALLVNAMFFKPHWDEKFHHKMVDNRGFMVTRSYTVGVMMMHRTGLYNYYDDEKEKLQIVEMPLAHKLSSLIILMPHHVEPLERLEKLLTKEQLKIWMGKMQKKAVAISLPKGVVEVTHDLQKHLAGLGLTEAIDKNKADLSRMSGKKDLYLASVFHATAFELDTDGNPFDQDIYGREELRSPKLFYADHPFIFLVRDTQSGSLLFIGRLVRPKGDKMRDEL
UniProt Q6P4A7: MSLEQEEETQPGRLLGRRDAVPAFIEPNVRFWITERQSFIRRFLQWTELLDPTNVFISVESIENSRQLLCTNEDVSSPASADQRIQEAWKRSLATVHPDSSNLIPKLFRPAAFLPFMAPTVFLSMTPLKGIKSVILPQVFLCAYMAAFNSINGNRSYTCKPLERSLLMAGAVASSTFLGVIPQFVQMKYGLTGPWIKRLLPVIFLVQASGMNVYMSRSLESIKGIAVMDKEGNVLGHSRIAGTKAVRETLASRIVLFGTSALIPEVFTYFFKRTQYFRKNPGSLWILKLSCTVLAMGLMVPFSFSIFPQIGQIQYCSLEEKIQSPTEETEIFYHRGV
UniProt Q9UHW9: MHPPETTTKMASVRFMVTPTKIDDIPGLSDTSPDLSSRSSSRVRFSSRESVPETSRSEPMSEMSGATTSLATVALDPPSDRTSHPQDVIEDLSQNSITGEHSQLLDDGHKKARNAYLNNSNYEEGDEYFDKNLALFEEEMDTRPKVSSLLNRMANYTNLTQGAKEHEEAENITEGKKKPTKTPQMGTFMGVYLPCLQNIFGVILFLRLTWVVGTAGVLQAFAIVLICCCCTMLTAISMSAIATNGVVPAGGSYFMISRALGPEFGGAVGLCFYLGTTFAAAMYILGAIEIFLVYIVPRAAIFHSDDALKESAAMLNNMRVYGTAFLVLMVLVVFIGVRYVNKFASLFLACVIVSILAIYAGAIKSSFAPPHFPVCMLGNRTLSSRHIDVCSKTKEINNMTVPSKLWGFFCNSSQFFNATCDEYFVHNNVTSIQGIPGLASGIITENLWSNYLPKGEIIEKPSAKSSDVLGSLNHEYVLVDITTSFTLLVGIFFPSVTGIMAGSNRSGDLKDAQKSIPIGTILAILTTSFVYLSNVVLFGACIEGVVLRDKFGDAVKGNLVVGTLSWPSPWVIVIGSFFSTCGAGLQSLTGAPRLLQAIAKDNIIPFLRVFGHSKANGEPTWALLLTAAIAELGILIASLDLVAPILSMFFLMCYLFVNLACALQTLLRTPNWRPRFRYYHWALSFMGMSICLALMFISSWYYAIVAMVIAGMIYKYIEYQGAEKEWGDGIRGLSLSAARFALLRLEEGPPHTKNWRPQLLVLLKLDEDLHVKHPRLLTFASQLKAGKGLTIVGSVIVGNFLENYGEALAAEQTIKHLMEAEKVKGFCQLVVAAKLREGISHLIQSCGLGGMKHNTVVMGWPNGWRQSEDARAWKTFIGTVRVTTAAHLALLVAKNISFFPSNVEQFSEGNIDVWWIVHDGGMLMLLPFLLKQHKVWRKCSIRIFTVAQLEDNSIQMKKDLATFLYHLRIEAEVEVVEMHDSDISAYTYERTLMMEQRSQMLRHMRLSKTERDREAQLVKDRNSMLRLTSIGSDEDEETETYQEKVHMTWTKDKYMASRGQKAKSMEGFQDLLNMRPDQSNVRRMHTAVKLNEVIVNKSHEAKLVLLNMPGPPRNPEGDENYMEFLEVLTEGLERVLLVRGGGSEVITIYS
UniProt Q96EB6: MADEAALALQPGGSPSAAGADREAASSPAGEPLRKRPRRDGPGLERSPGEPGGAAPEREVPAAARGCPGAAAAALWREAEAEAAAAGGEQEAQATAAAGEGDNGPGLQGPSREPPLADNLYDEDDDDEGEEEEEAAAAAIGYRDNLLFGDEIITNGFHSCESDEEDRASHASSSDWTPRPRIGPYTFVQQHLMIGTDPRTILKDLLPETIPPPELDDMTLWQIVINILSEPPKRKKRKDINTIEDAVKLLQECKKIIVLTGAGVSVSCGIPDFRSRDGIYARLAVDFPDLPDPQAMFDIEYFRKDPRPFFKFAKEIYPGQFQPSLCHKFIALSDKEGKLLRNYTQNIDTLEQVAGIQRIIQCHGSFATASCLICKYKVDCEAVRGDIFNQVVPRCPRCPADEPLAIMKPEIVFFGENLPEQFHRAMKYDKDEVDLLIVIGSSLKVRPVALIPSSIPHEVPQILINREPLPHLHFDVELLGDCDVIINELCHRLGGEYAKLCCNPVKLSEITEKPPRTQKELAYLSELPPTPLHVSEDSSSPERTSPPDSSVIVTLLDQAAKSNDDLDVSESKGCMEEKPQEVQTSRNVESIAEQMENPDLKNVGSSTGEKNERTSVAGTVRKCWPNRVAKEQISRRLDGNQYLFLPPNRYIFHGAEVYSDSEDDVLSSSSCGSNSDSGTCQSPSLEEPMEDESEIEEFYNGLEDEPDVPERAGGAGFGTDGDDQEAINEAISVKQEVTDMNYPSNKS
UniProt Q9H173: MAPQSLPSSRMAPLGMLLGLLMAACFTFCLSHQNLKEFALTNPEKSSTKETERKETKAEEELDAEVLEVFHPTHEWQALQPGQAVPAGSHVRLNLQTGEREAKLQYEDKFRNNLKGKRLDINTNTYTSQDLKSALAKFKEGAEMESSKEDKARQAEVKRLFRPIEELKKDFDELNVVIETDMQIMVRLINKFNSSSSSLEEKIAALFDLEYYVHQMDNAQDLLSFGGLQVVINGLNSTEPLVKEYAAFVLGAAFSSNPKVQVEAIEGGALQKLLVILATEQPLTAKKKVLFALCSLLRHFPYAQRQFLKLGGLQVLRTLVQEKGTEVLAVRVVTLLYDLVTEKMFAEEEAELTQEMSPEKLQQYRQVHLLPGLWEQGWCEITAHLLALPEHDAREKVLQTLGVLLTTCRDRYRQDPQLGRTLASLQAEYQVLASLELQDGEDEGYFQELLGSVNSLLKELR
UniProt Q99961: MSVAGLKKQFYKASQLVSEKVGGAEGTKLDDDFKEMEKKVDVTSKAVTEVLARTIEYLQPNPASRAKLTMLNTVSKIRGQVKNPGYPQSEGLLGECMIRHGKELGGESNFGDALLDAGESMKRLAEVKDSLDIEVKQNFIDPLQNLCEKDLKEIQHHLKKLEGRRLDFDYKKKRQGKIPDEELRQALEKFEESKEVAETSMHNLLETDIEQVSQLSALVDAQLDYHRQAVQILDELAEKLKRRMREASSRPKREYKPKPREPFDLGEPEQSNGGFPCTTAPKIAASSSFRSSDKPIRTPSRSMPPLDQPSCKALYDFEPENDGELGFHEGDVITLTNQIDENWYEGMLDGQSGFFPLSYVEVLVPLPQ
UniProt Q8WVK7: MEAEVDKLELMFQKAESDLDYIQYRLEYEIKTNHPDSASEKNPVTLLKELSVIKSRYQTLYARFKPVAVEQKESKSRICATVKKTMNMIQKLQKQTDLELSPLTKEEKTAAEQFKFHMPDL
UniProt Q9H0F6: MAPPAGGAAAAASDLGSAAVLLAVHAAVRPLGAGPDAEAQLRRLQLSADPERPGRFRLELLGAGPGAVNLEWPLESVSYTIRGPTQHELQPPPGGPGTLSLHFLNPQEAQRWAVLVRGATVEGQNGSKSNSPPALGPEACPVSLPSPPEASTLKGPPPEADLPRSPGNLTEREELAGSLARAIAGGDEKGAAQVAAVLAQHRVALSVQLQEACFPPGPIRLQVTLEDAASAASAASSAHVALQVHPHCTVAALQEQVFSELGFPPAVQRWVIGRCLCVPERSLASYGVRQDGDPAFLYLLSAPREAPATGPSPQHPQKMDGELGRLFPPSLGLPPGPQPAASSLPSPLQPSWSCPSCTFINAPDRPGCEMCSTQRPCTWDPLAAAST
UniProt P55822: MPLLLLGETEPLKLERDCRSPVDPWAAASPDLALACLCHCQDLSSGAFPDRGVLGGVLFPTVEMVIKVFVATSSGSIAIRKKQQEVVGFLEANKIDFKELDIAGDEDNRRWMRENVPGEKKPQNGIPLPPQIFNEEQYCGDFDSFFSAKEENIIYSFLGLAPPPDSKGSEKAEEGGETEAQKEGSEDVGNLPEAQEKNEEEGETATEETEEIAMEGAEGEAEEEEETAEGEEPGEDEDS
UniProt Q96NB2: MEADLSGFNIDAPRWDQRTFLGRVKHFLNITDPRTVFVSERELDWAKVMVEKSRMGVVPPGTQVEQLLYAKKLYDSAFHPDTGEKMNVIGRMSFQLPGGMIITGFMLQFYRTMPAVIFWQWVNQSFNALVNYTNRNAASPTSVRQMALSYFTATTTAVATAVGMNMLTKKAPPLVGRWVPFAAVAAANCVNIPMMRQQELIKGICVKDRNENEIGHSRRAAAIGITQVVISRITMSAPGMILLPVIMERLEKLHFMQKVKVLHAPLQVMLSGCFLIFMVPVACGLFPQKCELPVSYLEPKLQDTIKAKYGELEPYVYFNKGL
UniProt Q7L8J4: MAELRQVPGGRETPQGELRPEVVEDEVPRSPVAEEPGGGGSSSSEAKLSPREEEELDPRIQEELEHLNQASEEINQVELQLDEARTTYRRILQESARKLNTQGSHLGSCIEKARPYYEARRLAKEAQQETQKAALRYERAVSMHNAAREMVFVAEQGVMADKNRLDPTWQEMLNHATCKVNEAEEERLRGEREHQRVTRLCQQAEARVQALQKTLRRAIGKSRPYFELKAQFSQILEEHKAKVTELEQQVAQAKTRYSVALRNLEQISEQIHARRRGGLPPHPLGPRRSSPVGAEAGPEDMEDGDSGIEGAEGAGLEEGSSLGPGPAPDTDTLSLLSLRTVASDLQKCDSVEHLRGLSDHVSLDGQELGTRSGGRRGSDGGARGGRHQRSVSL
UniProt Q53H47: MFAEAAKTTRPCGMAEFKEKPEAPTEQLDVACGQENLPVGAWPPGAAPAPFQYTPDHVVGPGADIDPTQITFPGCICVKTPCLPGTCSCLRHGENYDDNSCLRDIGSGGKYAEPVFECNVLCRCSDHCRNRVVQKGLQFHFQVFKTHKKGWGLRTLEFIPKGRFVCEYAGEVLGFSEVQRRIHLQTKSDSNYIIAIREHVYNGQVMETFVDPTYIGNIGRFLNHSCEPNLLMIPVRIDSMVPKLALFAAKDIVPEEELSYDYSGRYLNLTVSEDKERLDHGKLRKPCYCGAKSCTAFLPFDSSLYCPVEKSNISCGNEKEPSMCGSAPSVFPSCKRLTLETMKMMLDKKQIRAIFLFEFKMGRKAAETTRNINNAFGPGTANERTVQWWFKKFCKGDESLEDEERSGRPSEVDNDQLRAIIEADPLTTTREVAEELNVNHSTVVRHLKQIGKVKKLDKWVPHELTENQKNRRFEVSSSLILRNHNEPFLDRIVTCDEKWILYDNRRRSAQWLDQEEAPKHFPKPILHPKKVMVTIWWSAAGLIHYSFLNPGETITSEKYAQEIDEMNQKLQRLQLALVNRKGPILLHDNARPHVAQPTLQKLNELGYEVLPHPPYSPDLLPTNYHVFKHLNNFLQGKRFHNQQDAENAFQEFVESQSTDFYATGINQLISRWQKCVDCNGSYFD

Experiments:
Assay in all cases: log2 fold change, soluble protein after heating vs DMSO (PISA); higher = thermal stabilisation; K562 lysate, 10 uM; active = over 0.2 and 3.5 SD of the protein, either way, in both replicates (recomputed)
[1] = compound: Cc1cn(-c2cc(NC(=O)c3ccc(C)c(Nc4nccc(-c5cccnc5)n4)c3)cc(C(F)(F)F)c2)cn1 [nilotinib]
Summary of the method: (§1)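 K562 pellets were dounce-homogenised in PBS pH 7.4 with 1 mM MgCl2, and the crude extract at 1 mg/mL protein was treated with 10 μM compound for 30 min. Aliquots were heated for 3 min across 48°C-58°C, pooled, and brought to 0.5% NP-40 at 4°C; soluble protein was the supernatant after 21,000xg for 90 min. Soluble protein was quantified by TMTpro 16plex LC-MS/MS with channel sums equalised, and reported as log2 fold change in thermal stability against DMSO controls, with values from duplicates.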

[2] = compound: Cc1nc(Nc2n[nH]c3c2CN(C(=O)N[C@H](CN(C)C)c2ccccc2)C3(C)C)c2sccc2n1
Summary of the method: as §1

[3] = compound: Cc1nc(Nc2ncc(C(=O)Nc3c(C)cccc3Cl)s2)cc(N2CCN(CCO)CC2)n1 [dasatinib]
Summary of the method: as §1

[4] = compound: Cc1ncc(-c2ccnc(Nc3ccc(S(C)(=O)=O)cc3)n2)n1C(C)C
Summary of the method: as §1

[5] = compound: Cn1cc(-c2ccc3c(c2)CCN3C(=O)Cc2cccc(C(F)(F)F)c2)c2c(N)ncnc21
Summary of the method: as §1

[6] = compound: Cn1cc(CNCC2CCN(c3ncc(C(=O)NO)cn3)CC2)c2ccccc21 [quisinostat]
Summary of the method: as §1

[7] = compound: Cn1cncc1[C@@](N)(c1ccc(Cl)cc1)c1ccc2c(c1)c(-c1cccc(Cl)c1)cc(=O)n2C [tipifarnib]
Summary of the method: as §1

[8] = compound: NC(=O)Nc1cc(-c2cccc(F)c2)sc1C(=O)N[C@H]1CCCNC1
Summary of the method: as §1

[9] = compound: NC(=O)c1cnc(N[C@@H]2CCCC[C@@H]2N)nc1Nc1cccc(-n2nccn2)c1
Summary of the method: as §1

[10] = compound: NC1(c2ccc(-c3nc4ccn5c(=O)[nH]nc5c4cc3-c3ccccc3)cc2)CCC1
Summary of the method: as §1

Measured: log2 fold change

SHFL (UniProt Q9NUL5)
inactive: [1] 0.015 | [2] -0.034 | [3] 0.043 | [4] -0.088 | [5] -0.035 | [6] -0.193 | [7] 0.005 | [8] -0.006 | [9] -0.009 | [10] 0.064

SIRT5 (UniProt Q9NXA8)
inactive: [1] 0.069 | [2] -0.045 | [3] 0.019 | [4] 0.01 | [5] -0.044 | [6] -0.006 | [7] 0.059 | [8] 0.014 | [9] 0.003 | [10] 0.012

SIN3A (UniProt Q96ST3)
inactive: [1] 0.039 | [2] -0.006 | [3] -0.017 | [4] -0.038 | [5] -0.007 | [6] -0.034 | [7] -0.013 | [8] 0.054 | [9] -0.008 | [10] -0.004

SKA1 (UniProt Q96BD8)
inactive: [1] -0.095 | [2] 0.052 | [3] -0.034 | [4] 0.023 | [5] -0.032 | [6] -0.104 | [7] 0.039 | [8] 0.038 | [9] -0.042 | [10] 0.014

SERPINB6, A0A087X1N8
inactive: [1] 0.031 | [2] -0.011 | [3] 0.031 | [4] 0.009 | [5] -0.044 | [6] 0.023 | [7] -0.001 | [8] 0.001 | [9] -0.021 | [10] 0.008

SGPL1 (UniProt O95470)
inactive: [1] 0.06 | [2] -0.017 | [3] -0.039 | [4] 0.051 | [5] -0.003 | [6] 0.052 | [7] 0.108 | [8] 0.008 | [9] -0.022 | [10] -0.003

SERPINH1 (UniProt P50454)
inactive: [1] 0.031 | [2] -0.038 | [3] -0.007 | [4] 0 | [5] -0.006 | [6] 0.026 | [7] 0.002 | [8] 0.001 | [9] -0.003 | [10] -0.008

SHKBP1 (UniProt Q8TBC3)
inactive: [1] 0.055 | [2] 0.098 | [3] 0.117 | [4] -0.072 | [5] -0.011 | [6] -0.039 | [7] 0.088 | [8] -0.016 | [9] 0.007 | [10] -0.096

SLC16A1 (UniProt P53985)
inactive: [1] 0.044 | [2] 0.043 | [3] 0.137 | [4] -0.009 | [5] -0.005 | [6] -0.064 | [7] 0.005 | [8] 0.012 | [9] -0.028 | [10] -0.003

SERPINB1 (UniProt P30740)
inactive: [1] 0.018 | [2] -0.009 | [3] 0.026 | [4] 0.014 | [5] 0.007 | [6] 0.022 | [7] 0.001 | [8] 0.002 | [9] -0.041 | [10] 0.009

SFXN4 (UniProt Q6P4A7)
inactive: [1] -0.034 | [2] -0.013 | [3] 0.015 | [4] 0.006 | [5] -0.066 | [6] -0.178 | [7] -0.006 | [8] 0.002 | [9] -0.067 | [10] -0.003

Quoted at random: two entries already listed
SERPINB1 (UniProt P30740)
inactive: [1] 0.018 | [2] -0.009 | [3] 0.026 | [4] 0.014 | [5] 0.007 | [6] 0.022 | [7] 0.001 | [8] 0.002 | [9] -0.041 | [10] 0.009

SHKBP1 (UniProt Q8TBC3)
inactive: [1] 0.055 | [2] 0.098 | [3] 0.117 | [4] -0.072 | [5] -0.011 | [6] -0.039 | [7] 0.088 | [8] -0.016 | [9] 0.007 | [10] -0.096

(further entries)

SLC20A2 (UniProt Q08357)
inactive: [1] 0.03 | [2] -0.247 | [3] -0.009 | [4] -0.065 | [5] 0.012 | [6] 0.052 | [7] 0.002 | [8] -0.06 | [9] 0.015

SLC12A6 (UniProt Q9UHW9)
inactive: [1] -0.004 | [2] 0 | [3] 0.024 | [4] -0.066 | [5] -0.003 | [6] -0.013 | [7] 0.012 | [8] -0.001 | [9] -0.022 | [10] 0.026

SIRT1 (UniProt Q96EB6)
inactive: [1] 0.016 | [2] -0.004 | [3] -0.004 | [4] 0.011 | [5] -0.014 | [6] 0.019 | [7] 0.013 | [8] 0.014 | [9] 0.016 | [10] -0.012

SF3A2 (UniProt Q15428)
inactive: [1] 0.025 | [2] 0.002 | [3] -0.021 | [4] 0.025 | [5] -0.013 | [6] -0.019 | [7] -0.021 | [8] -0.028 | [9] -0.005 | [10] 0.012

SIL1 (UniProt Q9H173)
inactive: [1] -0.046 | [2] -0.009 | [3] -0.012 | [4] -0.043 | [5] 0.016 | [6] -0.049 | [7] -0.003 | [8] 0.025 | [9] -0.013 | [10] -0.083

SH3GL1 (UniProt Q99961)
inactive: [1] -0.01 | [2] 0.029 | [3] -0.024 | [4] 0.01 | [5] -0.009 | [6] -0.046 | [7] 0.015 | [8] 0.004 | [9] 0.006 | [10] 0.033

SKA2 (UniProt Q8WVK7)
inactive: [1] -0.062 | [2] 0.015 | [3] 0.005 | [4] 0.005 | [5] 0.026 | [6] 0.122 | [7] -0.052 | [8] -0.022 | [9] 0.004 | [10] -0.023

SHARPIN (UniProt Q9H0F6)
inactive: [1] 0.097 | [2] -0.106 | [3] 0.031 | [4] 0.108 | [5] -0.093 | [6] 0.055 | [7] 0.149 | [8] -0.004 | [9] 0.097 | [10] 0.073

SH3BGR (UniProt P55822)
inactive: [1] 0.002 | [2] 0.007 | [3] 0.081 | [4] -0.013 | [5] -0.155 | [6] -0.027 | [7] 0.034 | [8] 0.026 | [9] -0.014 | [10] -0.009

SHOC2 (UniProt Q9UQ13)
inactive: [1] -0.015 | [2] -0.01 | [3] -0.014 | [4] -0.017 | [5] 0.021 | [6] 0.023 | [7] 0.029 | [8] 0.012 | [9] 0.004 | [10] -0.022

SFXN5 (UniProt Q8TD22)
inactive: [1] 0.055 | [2] -0.031 | [3] 0.189 | [4] 0.009 | [5] -0.063 | [6] -0.014 | [7] 0.111 | [8] -0.028 | [9] -0.038 | [10] 0.071

SFXN2 (UniProt Q96NB2)
inactive: [1] 0.066 | [2] -0.054 | [3] 0.013 | [4] -0.052 | [5] -0.005 | [6] 0.019 | [7] -0.036 | [8] -0.012 | [9] 0 | [10] -0.006

SHMT1 (UniProt P34896)
inactive: [1] 0.025 | [2] 0.003 | [3] -0.013 | [4] 0.04 | [5] 0.03 | [6] 0.04 | [7] 0.021 | [8] -0.013 | [9] 0.006 | [10] -0.004

SLC10A7 isoform 1 (UniProt Q0GE19)
inactive: [1] 0.038 | [2] -0.004 | [3] -0.07 | [4] 0 | [5] -0.026 | [6] -0.14 | [7] -0.055 | [8] 0.028 | [9] 0.05 | [10] 0.046

SH3BP5L (UniProt Q7L8J4)
inactive: [1] -0.056 | [2] 0.037 | [3] -0.023 | [4] 0.04 | [5] -0.025 | [6] 0.007 | [7] -0.01 | [8] 0.007 | [9] 0.013 | [10] -0.033

SETMAR (UniProt Q53H47)
inactive: [1] 0.013 | [2] 0.018 | [3] 0.066 | [4] 0.034 | [5] 0.038 | [6] -0.094 | [7] -0.015 | [8] 0.019 | [9] 0.008 | [10] 0.115

SF1 isoform 5 (UniProt Q15637)
inactive: [1] 0.012 | [2] 0.014 | [3] -0.025 | [4] 0.009 | [5] 0.008 | [6] 0.027 | [7] -0.004 | [8] -0.062 | [9] -0.01 | [10] -0.013

SH3BP5 (UniProt O60239)
inactive: [1] -0.082 | [2] -0.087 | [3] -0.002 | [4] 0.098 | [5] -0.036 | [6] -0.01 | [7] 0.056 | [8] 0.011 | [9] 0.187 | [10] -0.011

SLC1A5 (UniProt Q15758)
inactive: [1] -0.005 | [2] 0.018 | [3] 0.031 | [4] -0.013 | [5] -0.022 | [6] -0.043 | [7] -0.007 | [8] 0.01 | [9] -0.008 | [10] -0.02
